PubChem BioAssay AID504804, Drosophila RNAi Screening Center – 2011

Purpose: 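Knock-downs shielding fly cells from apoptosis caused by DNA damage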 (primary screen)
Cells: Drosophila Kc cells
Reagents: long dsRNA against Drosophila genes, 0.5 µg dsRNA per well
Time to read-out: 96 h (48 h knock-down, then 48 h drug)
Treatment: doxorubicin 5 µg/ml for 48 h, added 48 h after dsRNA
Read-out: 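Luminescent ATP counts per replicate, not normalised, reflecting viable cells after 48 h dsRNA knock-down followed by 48 h of 5 µg/ml doxorubicin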
Reading the numbers: raw ATP luminescence: higher = more viable cells, protection from doxorubicin
Call rule: 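Active when both duplicate wells lie at least 2 SD above the plate mean and protection is confirmed by rescreening and independent dsRNAs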
In all, the deposit lists about 19,000 reagents; this is a random part of those that have a named target and a result. In the full data, 47 (0.25%) got an active call. 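Signals are raw, not normalised; exact z-scores behind calls not deposited; actives needed confirmation, so some wells reaching 2 SD are inactive.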 Entries without a mark were called inactive.

gene knocked down	dsRNA	raw ATP luminescence, replicate 1	raw ATP luminescence, replicate 2
CG4741	DRSC04485	42733	38983
CG8907	DRSC16453	62030	48740
Hira	DRSC18672	32760	49400
olf413	DRSC11543	57253	59117
olf413	DRSC11679	63673	62847
olf413	DRSC11721	76543	62743
olf413	DRSC11833	72063	69877
CG3708	DRSC18646	47180	47640
Faa	DRSC08451	49063	39843
CG42323	DRSC19629	4.08e5	3.15e5
CG31102	DRSC14260	78450	69300
Gclc	DRSC18666	32770	39410
spd-2	DRSC09682	25970	22417
CG15888	DRSC15125	75240	66830
CG12377 (retired record)	DRSC11671	55640	55507
CG12377 (retired record)	DRSC11672	60680	64970
Caf1-105	DRSC06209	51443	84213
CG6428	DRSC18402	28250	41530
lncRNA:bxd	DRSC13176	2.27e5	2.03e5
CG30291	DRSC03842	61190	64740
CG3788	DRSC04418	42283	49953
Rsph4a	DRSC04338	72410	84003
CG3088	DRSC10352	41100	30740
casp	DRSC07164	55003	58853
CG14258	DRSC14753	75600	52570
CG3916	DRSC15520	58023	46313
RpS30	DRSC15119	36080	37090
SNF4Agamma	DRSC13461	2.24e5	2.28e5
SNF4Agamma	DRSC13463	1.99e5	2.12e5
SNF4Agamma	DRSC15879	39170	71510
SNF4Agamma	DRSC16847	50793	48183
CG30156	DRSC04959	84513	88007
CG31156	DRSC15753	42893	53543
CG31156	DRSC15755	76260	70870
slow	DRSC08589	34633	34337
slow	DRSC08590	77317	70697
CG12321	DRSC14499	34850	38297
CG31436	DRSC14661	57280	57850
CG31538	DRSC12059	51570	47573
Wsck	DRSC13682	1.67e5	1.93e5
euc	DRSC14492	38140	32460
alpha-Cat	DRSC11917	23543	25763
Rh50	DRSC08692	37920	35000
Shab	DRSC08013	1.54e5	1.29e5
Shab	DRSC08699	98567	61490
slou	DRSC17058	55430	43330
nur	DRSC01342	2.10e5	2.10e5
dpr16	DRSC12217	70370	86330
dpr16	DRSC12249	1.43e5	1.75e5
CG4364	DRSC02742	94980	78103
ASPP	DRSC04305	21903	21143
RIOK1	DRSC09853	37687	36737
CG14015	DRSC02346	19577	26540
CG8818	DRSC07275	58050	48370

Entries above whose gene name begins with A or a (2):
gene knocked down	dsRNA	raw ATP luminescence, replicate 1	raw ATP luminescence, replicate 2
alpha-Cat	DRSC11917	23543	25763
ASPP	DRSC04305	21903	21143

Additional results:
gene knocked down	dsRNA	raw ATP luminescence, replicate 1	raw ATP luminescence, replicate 2
Best4	DRSC10792	60333	44530
CG3309	DRSC18301	68300	51760
Oatp58Db	DRSC04364	39430	34370
AP-1mu	DRSC14089	49950	31450
Flad2	DRSC02531	70113	59923
Kaz	DRSC14637	66310	60310
prage	DRSC17957	31590	31870
prage	DRSC18490	60030	41770
prage	DRSC18497	52770	43870
Naxd	DRSC09722	18377	24420
Tmtc2	DRSC00272	1.06e5	69653
Osi19	DRSC12569	60870	49503
CG15084	DRSC06515	64717	46683
CG5280	DRSC10498	69293	79013
CG9287	DRSC03186	44353	64143
kis	DRSC00823	1.11e5	79673
pkaap	DRSC01925	65160	74523
Acsl	DRSC07252	55490	51413
Pex13	DRSC06877	87990	76380
CG3713	DRSC18648	58100	57910
CG2126	DRSC15418	59030	28360
CG17304 (retired record)	DRSC15222	31860	34690
PolA1	DRSC16640	52560	41183
CG2841	DRSC17699	2.35e5	2.36e5
CG2841	DRSC18824	42170	50530
Ada2a	DRSC16206	91950	76380
sob	DRSC00838	25953	36113
CG5897	DRSC10555	83047	68620
Edem2	DRSC02877	67070	99760
Cnot4	DRSC02830	35000	1.00e5
Cnot4	DRSC02831	43080	87010
